The supplement of paper PMC10338343
± gives the standard deviation. The list shows a part of the results, in another mix than the full data. Many entries were measured with a wide error. The list shows a part of the results.

Legend:
[1] = system: MILI (PIWIL2) piRISC loaded with L1MC piRNA (26 nt); experiment: pre-steady-state target cleavage rate (min^-1); higher = faster piRNA-guided slicing of the target; conditions: guide: L1MC piRNA 5'p-UAACUAAAUACUAUGCAAGCUGUAGG
How it was run: (§1)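 With or without 500 nM GTSF1 partner protein, 1 nM active affinity-purified piRISC carrying one synthetic guide was mixed with 0.1 nM transcribed, DNA-blocked target RNA library in HEPES–potassium acetate buffer at 33 °C for 0–8 or 0–960 min. Uncleaved targets were sequenced and normalised to depth and to weakly complementary targets, three trials were pooled, and k3 was capped at 0.0001 min^-1. The pre-steady-state cleavage rate came from a burst-and-steady-state fit.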

[2] = system: MIWI (PIWIL1) piRISC loaded with L1MC piRNA (30 nt); experiment: as above; conditions: guide: L1MC piRNA 5'p-UAACUAAAUACUAUGCAAGCUGUAGGUCCU
How it was run: as §1

[3] = system: EfPiwi piRISC loaded with L1MC piRNA (26 nt); experiment: pre-steady-state target cleavage rate (min^-1); guide: L1MC piRNA 5'p-UAACUAAAUACUAUGCAAGCUGUAGG; MIWI and MILI are mouse PIWI proteins and EfPiwi is from a freshwater sponge; tags in brackets are library labels; higher = faster piRNA-guided slicing of the target
How it was run: as §1

[4] = auxiliary factor: none (no GTSF1)
[5] = auxiliary factor: 500 nM Ephydatia muelleri Gtsf1
[6] = auxiliary factor: none (no Gtsf1)
[7] = auxiliary factor: 500 nM mouse GTSF1

| Sequence | pre-steady-state target cleavage rate [1, 4] | pre-steady-state target cleavage rate [2, 4] | pre-steady-state target cleavage rate [3, 5] | pre-steady-state target cleavage rate [3, 6] | pre-steady-state target cleavage rate [1, 7] | pre-steady-state target cleavage rate [2, 7] |
| --- | --- | --- | --- | --- | --- | --- |
| UCCUGCUACAGCUUGCAUAGUAAUUAGAAA | 0.00127 ± 0.0057 | 0.00196 ± 0.0036 | 0.00362 ± 0.0016 | 0.000308 ± 0.014 |  |  |
| UCCUGGUACAGCUUGCUUAGUAUUUACAAA | 0.00122 ± 0.0045 | 0.0023 ± 0.0028 | 0.00117 ± 0.0027 | 0.000263 ± 0.03 |  |  |
| UCCUGCAACAGCUUGCAUAGUAUUUAGAAA | 0.00152 ± 0.0057 | 0.00469 ± 0.0034 | 0.00432 ± 0.0016 | 0.000243 ± 0.026 | 0.138 ± 0.026 | 0.429 ± 0.059 |
| UCCUGGUACAGCUUGCAUAGUAAUUUCAAA | 0.00166 ± 0.0042 | 0.000583 ± 0.0081 | 0.0014 ± 0.0035 | 0.000619 ± 0.015 |  |  |
| UCCUGGAUGUCGAAGCAAAGUAUUUAGUUA | 0.00124 ± 0.004 | 0.0007 ± 0.0076 | 0.000997 ± 0.0053 | 0.000288 ± 0.025 | 0.00206 ± 0.0046 | 0.000802 ± 0.012 |
| UCCUGGAUGUCCUUGCAUAGUAUUUUGUAA | 0.000748 ± 0.0072 | 0.000846 ± 0.0068 | 0.002 ± 0.0048 | 0.000357 ± 0.018 |  |  |
| UCCUGGAUGAGCUUGGAUUGUAUUUAGUUA | 0.0017 ± 0.0036 | 0.00085 ± 0.0089 | 0.000345 ± 0.013 | < 0.0001 |  |  |
| UCCUGCUACAGCUUGGAUAGUAUUUACAAA | 0.000365 ± 0.011 | 0.000792 ± 0.0076 | 0.00306 ± 0.0026 | < 0.0001 |  |  |
| UCCUGGAACAGCUUGCAUAGUUAAUAGAAA | 0.00068 ± 0.0087 | 0.000468 ± 0.0075 | 0.00102 ± 0.0044 | 0.000563 ± 0.013 |  |  |
| UCCUGCUACAGCUACCAUAGUAUUUACAAA | 0.001 ± 0.0059 | 0.000827 ± 0.011 | 0.00078 ± 0.0042 | 0.000202 ± 0.034 |  |  |
| UCCUGGAUGUGCUAGCAUAGUAUUUAGAAA | 0.000711 ± 0.008 | 0.00177 ± 0.0043 | 0.00168 ± 0.0028 | 0.000557 ± 0.012 | 0.0422 ± 0.012 | 0.00284 ± 0.0037 |
| UCCUGGAUGUCGUUGCAUAGUAUUUUCAUA | 0.000611 ± 0.0094 | 0.000438 ± 0.019 | 0.000209 ± 0.023 | 0.000422 ± 0.019 | 0.00148 ± 0.0076 | 0.000278 ± 0.032 |
| UCCUGCUACAGCAAGCAUAGUAUUUACAAA | 0.00108 ± 0.0058 | 0.000594 ± 0.012 | 0.00214 ± 0.0051 | 0.000386 ± 0.023 |  |  |
| UCCUGGAACAGCUUCCAUAGUAUUUACUUA | 0.00044 ± 0.012 | 0.00111 ± 0.0066 | 0.000807 ± 0.0039 | < 0.0001 |  |  |
| UCCUGCUACAGCUUGCUAAGUAUUUACAAA | 0.000872 ± 0.006 | 0.000231 ± 0.019 | 0.000869 ± 0.0071 | 0.000566 ± 0.0095 |  |  |
| UCCUGGAUGUCCUUGCAUAGUAUUUAGCUA | 0.000722 ± 0.0067 | 0.00212 ± 0.003 | 0.000845 ± 0.004 | 0.000299 ± 0.021 |  |  |
| UCCUGGAUGUCCUUGCAUAGUAUUAUCAAA [g7:g19:cont:t1A] | 0.00135 ± 0.0046 | 0.00121 ± 0.006 | 0.000987 ± 0.0079 | 0.000121 ± 0.021 |  |  |
| UCCUGGAUGUCGUUGCAUAGUAUUUUCUUA | 0.000559 ± 0.011 | 0.000334 ± 0.009 | 0.00037 ± 0.0062 | 0.000171 ± 0.044 | 0.00558 ± 0.0035 | 0.00163 ± 0.0053 |
| UCCUGGAUGUGCUUGCGAUAGUAUUUAGUUA | 0.000541 ± 0.014 | 0.000915 ± 0.01 | 0.00257 ± 0.0027 | 0.00064 ± 0.015 | 0.00133 ± 0.0074 | 0.00191 ± 0.0063 |
| UCCUGGAUCAGCUUGCGAUAGUAUUUAGUUA | 0.000707 ± 0.0076 | 0.00226 ± 0.003 | 0.00281 ± 0.0027 | 0.000452 ± 0.013 |  |  |
